Where two headings read alike, the source gives them in different places. These are yes or no findings as the source states them, for the method shown. In cells and extracts the contact can be indirect. A yes stands for co-enrichment or nearness to the bait. Other partners may have been found.

Protein sequences, listed by entry. Tags and fused reporters are not part of them.
UniProt Q9UMS4: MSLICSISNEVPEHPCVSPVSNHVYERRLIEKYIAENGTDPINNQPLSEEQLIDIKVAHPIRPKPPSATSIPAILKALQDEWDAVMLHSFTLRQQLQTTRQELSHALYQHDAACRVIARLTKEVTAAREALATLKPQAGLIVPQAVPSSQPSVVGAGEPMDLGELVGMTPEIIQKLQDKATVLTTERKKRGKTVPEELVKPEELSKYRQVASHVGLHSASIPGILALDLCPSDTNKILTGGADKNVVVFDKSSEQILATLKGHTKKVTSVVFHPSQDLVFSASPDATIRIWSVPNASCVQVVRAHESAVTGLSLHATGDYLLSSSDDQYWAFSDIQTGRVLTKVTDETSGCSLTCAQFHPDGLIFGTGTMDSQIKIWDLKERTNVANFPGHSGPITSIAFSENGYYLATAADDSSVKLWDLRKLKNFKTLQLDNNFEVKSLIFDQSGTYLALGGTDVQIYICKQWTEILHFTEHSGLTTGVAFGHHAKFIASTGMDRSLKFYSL
UniProt P26038: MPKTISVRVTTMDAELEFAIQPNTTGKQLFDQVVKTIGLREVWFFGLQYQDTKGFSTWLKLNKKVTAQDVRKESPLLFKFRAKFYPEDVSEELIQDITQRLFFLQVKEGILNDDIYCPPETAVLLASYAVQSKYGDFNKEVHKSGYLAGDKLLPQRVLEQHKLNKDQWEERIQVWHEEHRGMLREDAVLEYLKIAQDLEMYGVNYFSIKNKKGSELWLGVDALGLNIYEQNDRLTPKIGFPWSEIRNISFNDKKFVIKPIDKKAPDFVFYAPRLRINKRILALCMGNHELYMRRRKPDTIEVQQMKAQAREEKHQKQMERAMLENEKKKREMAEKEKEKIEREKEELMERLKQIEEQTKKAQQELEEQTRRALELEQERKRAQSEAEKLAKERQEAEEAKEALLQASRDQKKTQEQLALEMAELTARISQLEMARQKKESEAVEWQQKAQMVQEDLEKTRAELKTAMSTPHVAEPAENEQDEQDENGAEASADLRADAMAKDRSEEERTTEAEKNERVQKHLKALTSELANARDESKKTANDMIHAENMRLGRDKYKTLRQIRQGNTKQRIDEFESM
UniProt P07951: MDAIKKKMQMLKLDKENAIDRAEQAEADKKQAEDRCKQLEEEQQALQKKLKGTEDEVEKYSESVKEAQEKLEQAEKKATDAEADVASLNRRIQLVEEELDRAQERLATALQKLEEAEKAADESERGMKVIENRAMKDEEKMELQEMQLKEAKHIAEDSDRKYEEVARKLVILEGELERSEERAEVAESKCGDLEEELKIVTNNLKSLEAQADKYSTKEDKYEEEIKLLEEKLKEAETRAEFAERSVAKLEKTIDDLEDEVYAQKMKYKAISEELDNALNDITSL

Test [1] addresses PRPF19 immunoprecipitated from DLD1 cells for LC-MS/MS (UniProt Q9UMS4). As to the kind of experiment: affinity purification with mass spectrometry; DLD1 cells treated with MG132 (20 uM) for 5 h; lysate immunoprecipitated with anti-PRPF19 antibody or IgG, Protein A/G magnetic beads; silver staining and LC-MS/MS.
For test [2] the target is unchanged. The test is described as above. The source holds these as a separate data set.

Consider MSN (from UniProt P26038 1-577), for which the binding entry in test [1] was “binds”.
Consider TPM2 (from UniProt P07951 1-284), for which, in test [1], the binding entry is given as “binds”.

B1: MYL9 (endogenous) (protein, UniProt P24844 1-172)
chain: MSSKRAKAKTTKKRPQRATSNVFAMFDQSQIQEFKEAFNMIDQNRDGFIDKEDLHDMLASLGKNPTDEYLEGMMSEAPGPINFTMFLTMFGEKLNGTDPEDVIRNAFACFDEEASGFIHEDHLRELLTTMGDRFTDEEVDEMYREAPIDKKGNFNYVEFTRILKHGAKDKDD
For the molecule B1, the binding entry in test [2] was “binds”.

The values above are taken from article PMC10082770.
